Reference: article PMC12316266

Columns and labels:
[1] = target: Dcp2 (Homo sapiens) (UniProt Q8IU60); assay: EMSA; conditions: 2 mM m7GpppA cap analog, no Mg2+, 5' m7GpppAm cap (2'-O-methyl on first A), EMSA: same buffer plus 5% glycerol, 24 C, 25 nM RNA, S2B EMSA: 50 mM KOAc, 20 mM Tris-OAc pH 7.9, 10 mM MgOAc, 100 ug/ml BSA, 37 C, 50 nM RNA, recombinant protein, protein details: His6-protein G-TEV tag, removed by TEV
[2] = target: eIF4E (Homo sapiens) (UniProt P06730); assay: EMSA; conditions: 5' m7GpppAm cap (2'-O-methyl on first A), EMSA: same buffer plus 5% glycerol, no Mg2+, 24 C, 25 nM RNA, S2B EMSA: 50 mM KOAc, 20 mM Tris-OAc pH 7.9, 10 mM MgOAc, 100 ug/ml BSA, 37 C, 50 nM RNA, recombinant protein, protein details: His6-protein G-TEV tag, removed by TEV

AGGAAAUAAGAGAGAAAAGAAGAGUAAGAAGAAAUAUAAGAGC [m7G-capped 43-mer RNA, 3' unlabeled]
binding result [1]: binds more weakly
binding result ([2]; 625 nM Dcp2 added after eIF4E, singly bound eIF4E species down ~4.5-fold): binds more weakly
binding result ([2]; 2 mM m7GpppA cap analog): no binding

Construct, isoform or probe ends are uncertain for at least one entry. For part of these data: Negatives hold for the conditions tested. The comparison behind a weaker result is the experiment's own reference, which may not be listed here.
